# Laboratory results published in patent US20220396794.
# For some of these results: No signal at the amounts used counts as a negative. For some of these results: At least one result comes from cells or an extract, where the contact may be indirect. For some of these results: For at least one entry, the source does not settle the construct or the ends of the probe. For some of these results: Where a protein sequence is shown, tags need not be part of it.
# Legend:
# [1] = molecular target: Transferrin receptor 1 (TfR1) on cells (Homo sapiens) (UniProt P02786); assay: binding assay; settings: 2'-F pyrimidines (rule of the parent selection); confocal live-cell imaging, U87MG; also internalised in HepG2 and PANC-1; protein on the cell surface; protein details: endogenous, U87MG, PANC-1 or HepG2 cells; label: biotin (SPR) or Cy3 (cells); variant of TR14 (87-nt)
# [2] = molecular target: T1, Transferrin receptor 2 (TfR2) on cells (Homo sapiens) (UniProt Q9UP52); assay: binding assay; settings: confocal live-cell imaging, protein details: endogenous, TB10 glioma cells, TfR1-negative, label: biotin (SPR) or Cy3 (cells)
# T1 sequence (looked up, limits assumed): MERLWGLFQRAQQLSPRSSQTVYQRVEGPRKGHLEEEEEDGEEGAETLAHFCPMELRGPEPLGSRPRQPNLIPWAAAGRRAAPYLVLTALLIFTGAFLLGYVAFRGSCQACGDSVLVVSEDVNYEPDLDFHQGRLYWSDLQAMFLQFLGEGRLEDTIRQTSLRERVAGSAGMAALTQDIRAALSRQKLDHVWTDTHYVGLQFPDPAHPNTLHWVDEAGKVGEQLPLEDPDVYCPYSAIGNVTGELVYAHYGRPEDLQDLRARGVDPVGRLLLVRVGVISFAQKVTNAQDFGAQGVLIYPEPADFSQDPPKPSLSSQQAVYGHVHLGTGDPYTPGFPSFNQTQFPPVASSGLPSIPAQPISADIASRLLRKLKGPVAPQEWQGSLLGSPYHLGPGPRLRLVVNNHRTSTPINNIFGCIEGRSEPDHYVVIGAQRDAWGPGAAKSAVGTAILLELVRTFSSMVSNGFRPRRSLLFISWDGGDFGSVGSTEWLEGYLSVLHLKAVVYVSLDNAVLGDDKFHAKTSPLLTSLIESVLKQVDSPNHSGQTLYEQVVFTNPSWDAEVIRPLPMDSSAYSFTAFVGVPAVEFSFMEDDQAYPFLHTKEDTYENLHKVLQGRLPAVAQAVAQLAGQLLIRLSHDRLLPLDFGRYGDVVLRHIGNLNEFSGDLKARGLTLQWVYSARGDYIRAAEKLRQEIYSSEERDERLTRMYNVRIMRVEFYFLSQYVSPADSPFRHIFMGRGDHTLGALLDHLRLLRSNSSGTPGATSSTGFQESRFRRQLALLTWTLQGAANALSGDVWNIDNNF
# [3] = molecular target: Transferrin receptor 1 (TfR1) on cells (Homo sapiens) (UniProt P02786); assay: activity in cells; settings: 2'-F pyrimidines (rule of the parent selection), protein on the cell surface, protein details: endogenous, U87MG, PANC-1 or HepG2 cells, variant of TR14 (87-nt)
# [4] = molecular target: Transferrin receptor 1 (TfR1) on cells (Homo sapiens) (UniProt P02786); assay: flow cytometry; settings: 2'-F pyrimidines (2'-F U, 2'-F C, SELEX rule); PANC-1 cells, 500 nM, on ice; enriched over library; protein on the cell surface; protein details: endogenous, U87MG, PANC-1 or HepG2 cells; label: biotin (SPR) or Cy3 (cells)
# [5] = molecular target: Transferrin receptor 1 (TfR1) on cells (Homo sapiens) (UniProt P02786); assay: competition with a labelled probe; settings: 2'-F pyrimidines (2'-F U, 2'-F C, SELEX rule); TR14 200 nM pre-incubation significantly inhibited transferrin uptake in PANC-1; no competition with anti-TfR antibody; protein on the cell surface; protein details: endogenous, U87MG, PANC-1 or HepG2 cells; label: biotin (SPR) or Cy3 (cells)
# [6] = not internalised in HepG2 and PANC-1, 100 nM
sequence,measurement,setting,value
UUUAUUCACAUUUUUGAAUUGA [TR14 ST1-3 (22-nt)],binding result,[1],binds
same,binding result,"[2]; 2'-F pyrimidines (rule of the parent selection), TB10, cross-reactive, protein on the cell surface, variant of TR14 (87-nt)",binds
GGGGCUCAAUGCGUUCACGUUUAUUCACAUUUUUGAAUUGAGC [TR14 S2 (43-nt)],binding result,[1],binds
same,binding result,"[2]; 2'-F pyrimidines (rule of the parent selection), TB10, S2 selective for TfR1, protein on the cell surface, variant of TR14 (87-nt)",no binding
AAUGCGUUCACGUUUAUUCACAUUUUUGAAUU [TR14 ST1-2 (32-nt)],functional effect of the aptamer,[3]; [6],not active
GCUCAAUGCGUUCACGUUUAUUCACAUUUUUGAAUUGAGC [TR14 ST1-1 (40-nt)],functional effect of the aptamer,[3]; [6],not active
GGGAGACAAGAAUAAACGCUCAAUGCGUUCACGUUUAUUCACAUUUUUGAAUUGAGCAUGAGCUUCGACAGGAGGCUCACAACAGGC [TR14 (87-nt)],binding result,"[2]; 2'-F pyrimidines (2'-F U, 2'-F C, SELEX rule), TB10 cells, parent TR14 bound both TfR1 (U87MG) and TfR2, protein on the cell …",binds
same,binding result,[4],binds
same,functional effect of the aptamer,[5],active
GGGGCUCAAUGCGUUCACGUUUAUUCACAUUUUUGAAUUGAGCAUG [TR14 S1 (46-nt)],functional effect of the aptamer,"[3]; internalised in HepG2 and PANC-1, 100 nM",active
